{
  "source": "patent US20220378073A1",
  "about": "“AGRIMONIA EUPATORIA EXTRACT PREPARATION METHOD, AND COMPOSITION FOR IMPROVING LIVER FUNCTIONS OR TREATING LIVER DISEASES, CONTAINING EXTRACT” (BIONIC TRADING CORPORATION, priority 2019, published 2022)",
  "origin": "cited, not measured here",
  "system": "white rats",
  "settings": "Oncotarget, 2017, Vol. 8, (No. 60)",
  "note": "At least one compound was matched to its structure with a doubt left.",
  "data": [
    {"smiles": "O=c1c(O[C@@H]2O[C@H](CO)[C@@H](O)[C@H](O)[C@H]2O)c(-c2ccc(O)c(O)c2)oc2cc(O)cc(O)c12", "note": "[isoquercitrin]", "values": [
      {"measurement": "liver function protective effect (AST and ALT levels)", "result": "exhibits a liver function protective effect by restoring AST and ALT levels"}
    ]}
  ]
}
